# The list shows a part of the results.
# B1: Epf (Streptococcus pyogenes) (protein)
# chain: GDHGPEFNGVMVVKAAEAEELPDDLMNFKGTWEVSADGSSGRFFSKGATDSYVFHLIPAKDVKKPGWREHNEVKDSYIKIDKQSIAARYKTSTTAPYSVAFKVNTKSLIKDHDYKITFEQGQIASGITVDYRIGSAFNKTTDDSFKISDESKYASNVKIEGEEQGFKQREQGDKTISFRTLKEGPMSLVLLSKVEKKPQGDLDVEFKNLKIIDVTNPSQLDKGVAYVGNKNVQLTLKSDDGRTNFEGDEISLFNSRGELLQTVTVTKDQQNPISITLSEDQAKSLKNKEKLKVSIKQKQSKKTSKDFFFEVGIDPKVEAKQKEKLLELDKVKKQIEDSINGDAWLPEKPVDLQGDHGLSAWSHPQFEK
# Assays:
# Experiment in all cases: glycan array binding signal (z-score within array); higher = stronger binding
# Settings in all cases: glycan notation: IUPAC condensed, linker removed
# [1] = molecular target: Gal(b1-3)GlcNAc(b1-3)Gal(b1-4)GlcNAc(b1-3)Gal(b1-4)GlcNAc(b1-2)[Gal(b1-3)GlcNAc(b1-3)Gal(b1-4)GlcNAc(b1-3)Gal(b1-4)GlcNAc(b1-6)]Man(a1-6)[Gal(b1-3)GlcNAc(b1-3)Gal(b1-4)GlcNAc(b1-3)Gal(b1-4)GlcNAc(b1-2)Man(a1-3)]Man(b1-4)GlcNAc(b1-4)[Fuc(a1-6)]GlcNAc
# Summary of the method: (§1)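 Glycan array data came from 3228 arrays in the Consortium for Functional Glycomics database, and only arrays with an available protein sequence were kept. Glycan names were put into IUPAC-condensed notation, and columns mapping to the same glycan were averaged. The binding signal is a within-array Z-score, averaged across arrays of one protein sequence run at different concentrations or buffers and across linkers. A negative Z-score can be read as non-binding.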
# [2] = molecular target: Gal(b1-3)GlcNAc(b1-3)Gal(b1-4)GlcNAc(b1-6)[Gal(b1-3)GlcNAc(b1-3)]Gal(b1-4)Glc
# Summary of the method: as §1
# [3] = molecular target: Gal(b1-3)GlcNAc(b1-3)Gal(b1-4)[Fuc(a1-3)]GlcNAc(b1-6)[Gal(b1-3)GlcNAc(b1-3)]Gal(b1-4)Glc
# Summary of the method: as §1
# [4] = molecular target: Gal(b1-3)GlcNAc(b1-3)GalNAc
# Summary of the method: as §1
# [5] = molecular target: Gal(b1-3)GlcNAc(b1-6)Gal(b1-4)GlcNAc
# Summary of the method: as §1
# [6] = molecular target: Gal(b1-3)GlcNAc(b1-6)GalNAc
# Summary of the method: as §1
# [7] = molecular target: Gal(b1-3)GlcNAc(b1-6)[Gal(b1-3)]GalNAc
# Summary of the method: as §1
# Gal(b1-3)GlcNAc6S = molecular target: Gal(b1-3)GlcNAc6S
# Summary of the method: as §1
# [8] = molecular target: Gal(b1-3)[Fuc(a1-4)]GlcNAc
# Summary of the method: as §1
# [9] = molecular target: Gal(b1-3)[Fuc(a1-4)]GlcNAc(b1-2)Man
# Summary of the method: as §1
# [10] = molecular target: Gal(b1-3)[Fuc(a1-4)]GlcNAc(b1-2)Man(a1-3)[Gal(b1-3)[Fuc(a1-4)]GlcNAc(b1-2)Man(a1-6)]Man(b1-4)GlcNAc(b1-4)[Fuc(a1-6)]GlcNAc
# Summary of the method: as §1
# [11] = molecular target: Gal(b1-3)[Fuc(a1-4)]GlcNAc(b1-3)Gal(b1-3)[Fuc(a1-4)]GlcNAc
# Summary of the method: as §1
# [12] = molecular target: Gal(b1-3)[Fuc(a1-4)]GlcNAc(b1-3)Gal(b1-4)GlcNAc
# Summary of the method: as §1
# [13] = molecular target: Gal(b1-3)[Fuc(a1-4)]GlcNAc(b1-3)Gal(b1-4)[Fuc(a1-3)]GlcNAc
# Summary of the method: as §1
# [14] = molecular target: Gal(b1-3)[Fuc(a1-4)]GlcNAc(b1-6)GalNAc
# Summary of the method: as §1
# [15] = molecular target: Gal(b1-3)[GlcNAc(b1-6)]GalNAc
# Summary of the method: as §1
# [16] = molecular target: Gal(b1-3)[Neu5Ac(a2-6)]GalNAc
# Summary of the method: as §1
# [17] = molecular target: Gal(b1-3)[Neu5Ac(a2-6)]GlcNAc(b1-4)Gal(b1-4)Glc
# Summary of the method: as §1
# [18] = molecular target: Gal(b1-3)[Neu5Ac(b2-6)]GalNAc
# Summary of the method: as §1
# Gal(b1-4)Gal = molecular target: Gal(b1-4)Gal
# Summary of the method: as §1
# [19] = molecular target: Gal(b1-4)GalNAc(a1-3)[Fuc(a1-2)]Gal(b1-4)GlcNAc
# Summary of the method: as §1
# [20] = molecular target: Gal(b1-4)GalNAc(b1-3)[Fuc(a1-2)]Gal(b1-4)GlcNAc
# Summary of the method: as §1
# Gal(b1-4)Glc = molecular target: Gal(b1-4)Glc
# Summary of the method: as §1
# Gal(b1-4)Glc6S = molecular target: Gal(b1-4)Glc6S
# Summary of the method: as §1
# Gal(b1-4)GlcNAc = molecular target: Gal(b1-4)GlcNAc
# Summary of the method: as §1
# [21] = molecular target: Gal(b1-4)GlcNAc(a1-6)Gal(b1-4)GlcNAc
# Summary of the method: as §1
# Gal(b1-4)GlcNAc(b1-2)Man = molecular target: Gal(b1-4)GlcNAc(b1-2)Man
# Summary of the method: as §1
# [22] = molecular target: Gal(b1-4)GlcNAc(b1-2)Man(a1-3)Man(b1-4)GlcNAc(b1-4)GlcNAc
# Summary of the method: as §1
# [23] = molecular target: Gal(b1-4)GlcNAc(b1-2)Man(a1-3)[Gal(b1-4)GlcNAc(b1-2)Man(a1-6)]Man(b1-4)GlcNAc(b1-4)GlcNAc
# Summary of the method: as §1
# [24] = molecular target: Gal(b1-4)GlcNAc(b1-2)Man(a1-3)[Gal(b1-4)GlcNAc(b1-2)Man(a1-6)]Man(b1-4)GlcNAc(b1-4)[Fuc(a1-6)]GlcNAc
# Summary of the method: as §1
# [25] = molecular target: Gal(b1-4)GlcNAc(b1-2)Man(a1-3)[Gal(b1-4)GlcNAc(b1-2)Man(a1-6)][Gal(b1-4)GlcNAc(b1-4)]Man(b1-4)GlcNAc(b1-4)[Fuc(a1-6)]GlcNAc
# Summary of the method: as §1
# [26] = molecular target: Gal(b1-4)GlcNAc(b1-2)Man(a1-3)[Gal(b1-4)GlcNAc(b1-2)Man(a1-6)][GlcNAc(b1-4)]Man(b1-4)GlcNAc(b1-4)[Fuc(a1-6)]GlcNAc
# Summary of the method: as §1
# [27] = molecular target: Gal(b1-4)GlcNAc(b1-2)Man(a1-3)[GlcNAc(b1-2)Man(a1-6)]Man(b1-4)GlcNAc(b1-4)GlcNAc
# Summary of the method: as §1
# [28] = molecular target: Gal(b1-4)GlcNAc(b1-2)Man(a1-3)[GlcNAc(b1-4)][Gal(b1-4)GlcNAc(b1-2)Man(a1-6)]Man(b1-4)GlcNAc(b1-4)GlcNAc
# Summary of the method: as §1
# [29] = molecular target: Gal(b1-4)GlcNAc(b1-2)Man(a1-3)[Man(a1-6)]Man(b1-4)GlcNAc(b1-4)GlcNAc
# Summary of the method: as §1
# [30] = molecular target: Gal(b1-4)GlcNAc(b1-2)Man(a1-6)Man(b1-4)GlcNAc(b1-4)GlcNAc
# Summary of the method: as §1
# [31] = molecular target: Gal(b1-4)GlcNAc(b1-2)Man(a1-6)[GlcNAc(b1-2)Man(a1-3)]Man(b1-4)GlcNAc(b1-4)GlcNAc
# Summary of the method: as §1
# [32] = molecular target: Gal(b1-4)GlcNAc(b1-2)Man(a1-6)[Man(a1-3)]Man(b1-4)GlcNAc(b1-4)GlcNAc
# Summary of the method: as §1
binder,measurement,setting,value
B1,glycan array binding signal (z-score),[1],0.062
same,glycan array binding signal (z-score),[2],2.25
same,glycan array binding signal (z-score),[3],3.16
same,glycan array binding signal (z-score),[4],-0.5
same,glycan array binding signal (z-score),[5],-0.606
same,glycan array binding signal (z-score),[6],-1.04
same,glycan array binding signal (z-score),[7],0.349
same,glycan array binding signal (z-score),Gal(b1-3)GlcNAc6S,-1.28
same,glycan array binding signal (z-score),[8],0.268
same,glycan array binding signal (z-score),[9],-0.741
same,glycan array binding signal (z-score),[10],0.179
same,glycan array binding signal (z-score),[11],-1.88
same,glycan array binding signal (z-score),[12],-0.641
same,glycan array binding signal (z-score),[13],-0.197
same,glycan array binding signal (z-score),[14],0.662
same,glycan array binding signal (z-score),[15],0.807
same,glycan array binding signal (z-score),[16],0.024
same,glycan array binding signal (z-score),[17],-1.6
same,glycan array binding signal (z-score),[18],-0.54
same,glycan array binding signal (z-score),Gal(b1-4)Gal,1.01
same,glycan array binding signal (z-score),[19],-0.936
same,glycan array binding signal (z-score),[20],-0.864
same,glycan array binding signal (z-score),Gal(b1-4)Glc,0.222
same,glycan array binding signal (z-score),Gal(b1-4)Glc6S,-0.278
same,glycan array binding signal (z-score),Gal(b1-4)GlcNAc,-1
same,glycan array binding signal (z-score),[21],-0.437
same,glycan array binding signal (z-score),Gal(b1-4)GlcNAc(b1-2)Man,0.19
same,glycan array binding signal (z-score),[22],-0.393
same,glycan array binding signal (z-score),[23],-0.307
same,glycan array binding signal (z-score),[24],-0.734
same,glycan array binding signal (z-score),[25],-1.33
same,glycan array binding signal (z-score),[26],-1.32
same,glycan array binding signal (z-score),[27],0.192
same,glycan array binding signal (z-score),[28],-0.014
same,glycan array binding signal (z-score),[29],-0.538
same,glycan array binding signal (z-score),[30],0.334
same,glycan array binding signal (z-score),[31],-0.172
same,glycan array binding signal (z-score),[32],-0.888

# Random excerpt: 2 records from the list, in no set order.
binder,measurement,setting,value
B1,glycan array binding signal (z-score),[9],-0.741
same,glycan array binding signal (z-score),Gal(b1-4)Glc,0.222
